{
  "source": "patent US20190127481A1",
  "about": "(UNIVERSIT T Z RICH, published 2019)",
  "binders": {"B1": {"name": "DARPin H14 (designed binder)", "chain": "GSDLGKKLLEAARAGQDDEVRILMANGADVNATDIHGHTPLHLAAAMGHLEIVEVLLKNGADVNANDWRGFTPLHLAALNGHLEIVEVLLKNGADVNATDTAGNTPLHLAAWFGHLEIVEVLLKNGADVNAQDKFGKTAFDISIDNGNEDLAEILQKLN"}, "B2": {"name": "DARPin 926 (designed binder)", "chain": "MRGSHHHHHHGSDLGKKLLEAARAGQDDEVRILMANGADVNAKDFYGITPLHLAAAYGHLEIVEVLLKHGADVNAHDWNGWTPLHLAAKYGHLEIVEVLLKHGADVNAIDNAGKTPLHLAAAHGHLEIVEVLLKYGADVNAQDKFGKTAFDISIDNGNEDLAEILQKLN", "notes": "Member of the 9XX collection"}},
  "key": {"[1]": {"target": "HER2 (ErbB2/Neu) on the surface of HER2-overexpressing cancer cells (human) (UniProt P04626)", "assay": "flow cytometry on viable HER2-overexpressing cancer cells (BT474, SkBr3, SkOv3)"}, "[2]": {"target": "HER2 (ErbB2/Neu) on the surface of HER2-overexpressing cancer cells (human) (UniProt P04626)", "assay": "flow cytometry, dissociation of Alexa488-labelled agent from the cell surface in the presence of 100 nM unlabelled agent"}, "[3]": {"target": "HER2 (ErbB2/Neu) on the surface of HER2-overexpressing cancer cells (human) (UniProt P04626)", "assay": "flow cytometry on BT474 cells, association time course of Alexa Fluor-488 labelled DARPin"}, "[4]": {"target": "domain 1 of the ECD HER2 (individually expressed) (human) (UniProt P04626)", "assay": "ELISA on domain 1 of the ECD HER2"}},
  "note": "These are yes or no findings as the source states them, for the method shown. Some results given as binding are weak or reduced against the parent protein; the word gives no strength.",
  "data": [
    {"binder": "B1", "values": [
      {"measurement": "binding", "setting": "[1]", "value": "binds"},
      {"measurement": "binding", "setting": "[2]", "value": "binds"},
      {"measurement": "binding", "setting": "[3]", "value": "binds"}
    ]},
    {"binder": "B2", "values": [
      {"measurement": "binding", "setting": "[4]", "value": "binds"}
    ]}
  ]
}
